# Source: the supplement of paper PMC8728848
# Some of the results follow.
# B1: GST-Gap1 (Streptococcus parasanguinis), A1C3L5 (protein)
# chain: MFYFVPSWYNGQRQWYYDTPWWFRVKNRMTFDDSVNQVKMFLQGQEEIGLMILNYQPQLRYFLHKQNIFGIYYWSFFDDIQNITRSYTKIIHLKDLNWPEGCEFLYSPFAVVVRLKGEIFAIVNYAEDGNLHSVSFQKNGKVTKDYIFDDRGFLSSILYYDIDERPLYQDYLNINGVWQVREFLKKENDPTPILMINDFSDQTFSKKYYNGWEELIKERLAIFQNNHVENEDVFVLASDTQHNQLVSSIFKEHRKIYSFFGNRFNLENLGQDRISINDATFLVVDTEKNEELLRKTCENLVFKSIPIVRLSPFDSRLRLGHSQTVKEQIIYFHIDNIELDELYSVIAIILELMTLHLDIELRIVTFRQDFQLDLLKTWIIDFIKTNHFEDLLFKQISEGENEIEDEGEIELSRIAMECFTNENQIIKCLDTARLVIDLGIEPDLYTQIASISAGIPQINRVSSDYVIHQKNGLVISDISKLSSAIEFYFDGLFNWNEALIYAVRKMSDYTSGKILKQWKGMLKKK
# Columns and labels:
# Experiment in all cases: glycan array binding signal (z-score within array); higher = stronger binding
# Conditions in all cases: glycan notation: IUPAC condensed, linker removed
# [1] = target: Fuc(a1-2)[GalNAc(a1-3)]Gal(b1-4)GlcNAc(b1-6)GalNAc
# How it was run: (§1)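 The binding signal is a Z-score computed within each array and averaged over linkers. Arrays of the same protein sequence at different concentrations or buffers were also averaged together. Data originate from 3228 arrays in the Consortium for Functional Glycomics database, kept only where the protein sequence was available.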
# [2] = target: Fuc(a1-2)[GalNAc(a1-3)]Gal(b1-4)[Fuc(a1-3)]GlcNAc
# How it was run: as §1
# [3] = target: Fuc(a1-2)[GalNAc(a1-3)]Gal(b1-4)[Fuc(a1-3)]GlcNAc(b1-3)GalNAc
# How it was run: as §1
# [4] = target: Fuc(a1-2)[GalNAc(a1-4)]Gal(b1-4)GlcNAc
# How it was run: as §1
# [5] = target: Fuc(a1-2)[GalNAc(b1-3)]Gal
# How it was run: as §1
# Fuc(a1-3)GlcNAc = target: Fuc(a1-3)GlcNAc
# How it was run: as §1
# [6] = target: Fuc(a1-3)[Gal(b1-4)]Glc6S
# How it was run: as §1
# [7] = target: Fuc(a1-3)[Gal(b1-4)]GlcNAc
# How it was run: as §1
# [8] = target: Fuc(a1-3)[Gal(b1-4)]GlcNAc(b1-2)Man
# How it was run: as §1
# [9] = target: Fuc(a1-3)[Gal(b1-4)]GlcNAc(b1-2)Man(a1-3)[Fuc(a1-3)[Gal(b1-4)]GlcNAc(b1-2)Man(a1-6)]Man(b1-4)GlcNAc(b1-4)GlcNAc
# How it was run: as §1
# [10] = target: Fuc(a1-3)[Gal(b1-4)]GlcNAc(b1-2)Man(a1-3)[Fuc(a1-3)[Gal(b1-4)]GlcNAc(b1-2)Man(a1-6)]Man(b1-4)GlcNAc(b1-4)[Fuc(a1-6)]GlcNAc
# How it was run: as §1
# [11] = target: Fuc(a1-3)[Gal(b1-4)]GlcNAc(b1-3)Gal(b1-3)[Fuc(a1-4)]GlcNAc
# How it was run: as §1
# [12] = target: Fuc(a1-3)[Gal(b1-4)]GlcNAc(b1-3)Gal(b1-4)[Fuc(a1-3)]GlcNAc
# How it was run: as §1
# [13] = target: Fuc(a1-3)[Gal(b1-4)]GlcNAc(b1-3)Gal(b1-4)[Fuc(a1-3)]GlcNAc(b1-3)Gal(b1-4)[Fuc(a1-3)]GlcNAc
# How it was run: as §1
# [14] = target: Fuc(a1-3)[Gal(b1-4)]GlcNAc(b1-3)GalNAc
# How it was run: as §1
# [15] = target: Fuc(a1-3)[Gal(b1-4)]GlcNAc(b1-4)Gal(b1-4)[Fuc(a1-3)]GlcNAc
# How it was run: as §1
# [16] = target: Fuc(a1-3)[Gal(b1-4)]GlcNAc(b1-4)Gal(b1-4)[Fuc(a1-3)]GlcNAc(b1-4)Gal(b1-4)[Fuc(a1-3)]GlcNAc
# How it was run: as §1
# [17] = target: Fuc(a1-3)[Gal(b1-4)]GlcNAc(b1-6)GalNAc
# How it was run: as §1
# [18] = target: Fuc(a1-3)[Gal(b1-4)]GlcNAc(b1-6)[Gal(b1-3)GlcNAc(b1-3)]Gal(b1-4)Glc
# How it was run: as §1
# [19] = target: Fuc(a1-3)[Gal(b1-4)]GlcNAc6S
# How it was run: as §1
# [20] = target: Fuc(a1-3)[Gal3S(b1-4)]Glc
# How it was run: as §1
# [21] = target: Fuc(a1-3)[Gal3S(b1-4)]GlcNAc
# How it was run: as §1
# [22] = target: Fuc(a1-3)[Gal3S(b1-4)]GlcNAc6S
# How it was run: as §1
# [23] = target: Fuc(a1-3)[GalNAc(b1-4)]GlcNAc
# How it was run: as §1
# [24] = target: Fuc(a1-3)[GalNAc(b1-4)]GlcNAc6S
# How it was run: as §1
# Fuc(a1-4)GlcNAc = target: Fuc(a1-4)GlcNAc
# How it was run: as §1
# Fuc(b1-3)GlcNAc = target: Fuc(b1-3)GlcNAc
# How it was run: as §1
# Gal(a1-2)Gal = target: Gal(a1-2)Gal
# How it was run: as §1
# Gal(a1-3)Gal = target: Gal(a1-3)Gal
# How it was run: as §1
# Gal(a1-3)Gal(b1-3)GlcNAc = target: Gal(a1-3)Gal(b1-3)GlcNAc
# How it was run: as §1
# [25] = target: Gal(a1-3)Gal(b1-3)GlcNAc(b1-2)Man
# How it was run: as §1
# [26] = target: Gal(a1-3)Gal(b1-3)GlcNAc(b1-2)Man(a1-3)[Gal(a1-3)Gal(b1-3)GlcNAc(b1-2)Man(a1-6)]Man(b1-4)GlcNAc(b1-4)GlcNAc
# How it was run: as §1
# [27] = target: Gal(a1-3)Gal(b1-3)GlcNAc(b1-3)GalNAc
# How it was run: as §1
# [28] = target: Gal(a1-3)Gal(b1-3)GlcNAc(b1-6)GalNAc
# How it was run: as §1
# [29] = target: Gal(a1-3)Gal(b1-3)[Fuc(a1-4)]GlcNAc(b1-2)Man(a1-3)[Gal(a1-3)Gal(b1-3)[Fuc(a1-4)]GlcNAc(b1-2)Man(a1-6)]Man(b1-4)GlcNAc(b1-4)GlcNAc
# How it was run: as §1
# Gal(a1-3)Gal(b1-4)Glc = target: Gal(a1-3)Gal(b1-4)Glc
# How it was run: as §1
# Gal(a1-3)Gal(b1-4)GlcNAc = target: Gal(a1-3)Gal(b1-4)GlcNAc
# How it was run: as §1
binder,measurement,setting,value
B1,glycan array binding signal (z-score),[1],-1.44
same,glycan array binding signal (z-score),[2],-0.141
same,glycan array binding signal (z-score),[3],0.024
same,glycan array binding signal (z-score),[4],0.392
same,glycan array binding signal (z-score),[5],0.109
same,glycan array binding signal (z-score),Fuc(a1-3)GlcNAc,-0.531
same,glycan array binding signal (z-score),[6],-0.01
same,glycan array binding signal (z-score),[7],-0.306
same,glycan array binding signal (z-score),[8],-0.692
same,glycan array binding signal (z-score),[9],-0.381
same,glycan array binding signal (z-score),[10],0.493
same,glycan array binding signal (z-score),[11],0.056
same,glycan array binding signal (z-score),[12],0.358
same,glycan array binding signal (z-score),[13],-0.426
same,glycan array binding signal (z-score),[14],-0.461
same,glycan array binding signal (z-score),[15],0.372
same,glycan array binding signal (z-score),[16],-0.256
same,glycan array binding signal (z-score),[17],-1.44
same,glycan array binding signal (z-score),[18],-0.333
same,glycan array binding signal (z-score),[19],0.098
same,glycan array binding signal (z-score),[20],0.22
same,glycan array binding signal (z-score),[21],-0.633
same,glycan array binding signal (z-score),[22],0.696
same,glycan array binding signal (z-score),[23],0.035
same,glycan array binding signal (z-score),[24],-0.687
same,glycan array binding signal (z-score),Fuc(a1-4)GlcNAc,-0.282
same,glycan array binding signal (z-score),Fuc(b1-3)GlcNAc,-0.341
same,glycan array binding signal (z-score),Gal(a1-2)Gal,-0.401
same,glycan array binding signal (z-score),Gal(a1-3)Gal,-0.291
same,glycan array binding signal (z-score),Gal(a1-3)Gal(b1-3)GlcNAc,-0.015
same,glycan array binding signal (z-score),[25],0.212
same,glycan array binding signal (z-score),[26],0.647
same,glycan array binding signal (z-score),[27],0.124
same,glycan array binding signal (z-score),[28],0.654
same,glycan array binding signal (z-score),[29],0.264
same,glycan array binding signal (z-score),Gal(a1-3)Gal(b1-4)Glc,2.03
same,glycan array binding signal (z-score),Gal(a1-3)Gal(b1-4)GlcNAc,-0.312

# Looked up one by one from above:
binder,measurement,setting,value
B1,glycan array binding signal (z-score),[25],0.212
same,glycan array binding signal (z-score),[28],0.654
